The source of these data is patent publication US20190375855A1 (Memorial Sloan Kettering, published 2019).

No constants are given. Whether binding was seen depends on the method and setting. Some binding calls cover weakened binding; strength is not graded here.

In test [1] the target is Trp1 as expressed by B16 melanoma cells (UniProt P07147). As to the kind of experiment: flow cytometry on permeabilized B16 melanoma cells, anti-mouse IgG PE detection. For orientation: A flow cytometer gives signals particle by particle.
Test [2] shares this target. As to the kind of experiment: flow cytometry on permeabilized B16 cells, detection with anti-mouse IgG PE.

B1: murine monoclonal antibody TA99 (antibody, V domains shown)
VH: EVQLQQSGAELVRPGALVKLSCKTSGFNIKDYFLHWVRQRPDQGLEWIGWINPDNGNTVYDPKFQGTASLTADTSSNTVYLQLSGLTSEDTAVYFCTRRDYTYEKAALDYWGQGASVIVSS
VL: AFQMSQSPASLSASVGETVTITCRASGNIYNYLAWYQQKQGKSPHLLVYDAKTLADGVPSRFSGSGSGTQYSLKISSLQTEDSGNYYCQHFWSLPFTFGSGTKLEIKA
On to B1, for which the binding entry in test [1] and in test [2] was “binds” in each case.
